Drawing on paper PMC6533038, this text covers binding for 1 substance.

Protein sequences, listed by entry. Tags and fused reporters are not part of them.
UniProt Q96LR5: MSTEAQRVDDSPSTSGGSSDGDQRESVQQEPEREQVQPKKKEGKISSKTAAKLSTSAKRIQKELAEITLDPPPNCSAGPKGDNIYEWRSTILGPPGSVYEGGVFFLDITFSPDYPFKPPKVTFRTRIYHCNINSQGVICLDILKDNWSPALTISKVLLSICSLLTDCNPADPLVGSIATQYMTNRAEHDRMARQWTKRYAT

In this assay the target is Cbl expressed in HEK293T cells (UniProt P22681). In words: co-IP; HEK293T transfected with Flag-tagged Ube2e1, Ube2e2 or Ube2e3 with empty vector or EGFR/Cbl; NP40 lysis buffer; Cbl precipitated with anti-Cbl (C-15), blot with anti-Flag.

No constants are given. Whether binding was seen depends on the method and setting. In cells and extracts the contact can be indirect.

Regarding “Flag-tagged Ube2e2 (from UniProt Q96LR5 1-201) (enzyme)”, the binding entry was “no binding”.
